# Results of single-concentration screens

By UniProt entry, the sequences of proteins in these tests, tags left out. Residues count along the entry.
UniProt P9WPC5, whole entry: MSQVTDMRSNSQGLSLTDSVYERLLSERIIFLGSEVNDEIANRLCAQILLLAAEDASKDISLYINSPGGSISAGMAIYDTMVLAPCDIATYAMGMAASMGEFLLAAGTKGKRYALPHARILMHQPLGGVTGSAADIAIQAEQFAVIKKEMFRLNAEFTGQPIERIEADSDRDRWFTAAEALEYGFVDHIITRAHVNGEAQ
UniProt P9WPC3, whole entry partner: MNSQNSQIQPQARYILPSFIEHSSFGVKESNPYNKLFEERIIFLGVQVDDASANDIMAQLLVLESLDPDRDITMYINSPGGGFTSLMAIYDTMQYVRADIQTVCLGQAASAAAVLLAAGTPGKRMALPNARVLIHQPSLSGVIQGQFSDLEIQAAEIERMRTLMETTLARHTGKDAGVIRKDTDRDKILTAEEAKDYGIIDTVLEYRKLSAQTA
UniProt Q4DA54, 1-478: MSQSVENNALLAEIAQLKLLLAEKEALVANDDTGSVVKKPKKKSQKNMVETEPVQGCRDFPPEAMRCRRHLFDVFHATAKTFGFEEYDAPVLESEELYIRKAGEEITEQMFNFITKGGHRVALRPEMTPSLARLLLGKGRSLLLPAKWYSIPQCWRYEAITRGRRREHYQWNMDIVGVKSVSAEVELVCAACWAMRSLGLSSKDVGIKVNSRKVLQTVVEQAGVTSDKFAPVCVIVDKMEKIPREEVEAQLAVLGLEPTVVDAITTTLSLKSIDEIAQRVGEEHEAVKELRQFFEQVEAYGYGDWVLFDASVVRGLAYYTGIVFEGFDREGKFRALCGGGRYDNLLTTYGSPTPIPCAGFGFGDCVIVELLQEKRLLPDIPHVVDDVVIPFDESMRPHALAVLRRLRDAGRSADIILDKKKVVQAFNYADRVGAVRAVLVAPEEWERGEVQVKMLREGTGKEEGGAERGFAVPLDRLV
UniProt Q8IDJ8, 1-583: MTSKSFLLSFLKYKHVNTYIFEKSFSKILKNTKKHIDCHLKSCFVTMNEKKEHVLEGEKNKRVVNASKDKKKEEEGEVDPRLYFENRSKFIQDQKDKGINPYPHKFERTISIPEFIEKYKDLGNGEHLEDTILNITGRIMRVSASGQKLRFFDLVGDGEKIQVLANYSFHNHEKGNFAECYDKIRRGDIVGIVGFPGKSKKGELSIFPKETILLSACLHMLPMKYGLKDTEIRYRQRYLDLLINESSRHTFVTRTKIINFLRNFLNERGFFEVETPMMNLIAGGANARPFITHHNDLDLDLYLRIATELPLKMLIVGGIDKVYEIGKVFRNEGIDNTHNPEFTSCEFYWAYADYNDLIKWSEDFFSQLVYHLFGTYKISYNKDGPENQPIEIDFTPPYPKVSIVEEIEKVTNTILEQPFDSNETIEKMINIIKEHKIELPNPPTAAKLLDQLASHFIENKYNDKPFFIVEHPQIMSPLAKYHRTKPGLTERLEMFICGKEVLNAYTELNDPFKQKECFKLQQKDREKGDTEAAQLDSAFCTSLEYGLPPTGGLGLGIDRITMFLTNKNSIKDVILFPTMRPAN
UniProt I6X8D2, whole entry: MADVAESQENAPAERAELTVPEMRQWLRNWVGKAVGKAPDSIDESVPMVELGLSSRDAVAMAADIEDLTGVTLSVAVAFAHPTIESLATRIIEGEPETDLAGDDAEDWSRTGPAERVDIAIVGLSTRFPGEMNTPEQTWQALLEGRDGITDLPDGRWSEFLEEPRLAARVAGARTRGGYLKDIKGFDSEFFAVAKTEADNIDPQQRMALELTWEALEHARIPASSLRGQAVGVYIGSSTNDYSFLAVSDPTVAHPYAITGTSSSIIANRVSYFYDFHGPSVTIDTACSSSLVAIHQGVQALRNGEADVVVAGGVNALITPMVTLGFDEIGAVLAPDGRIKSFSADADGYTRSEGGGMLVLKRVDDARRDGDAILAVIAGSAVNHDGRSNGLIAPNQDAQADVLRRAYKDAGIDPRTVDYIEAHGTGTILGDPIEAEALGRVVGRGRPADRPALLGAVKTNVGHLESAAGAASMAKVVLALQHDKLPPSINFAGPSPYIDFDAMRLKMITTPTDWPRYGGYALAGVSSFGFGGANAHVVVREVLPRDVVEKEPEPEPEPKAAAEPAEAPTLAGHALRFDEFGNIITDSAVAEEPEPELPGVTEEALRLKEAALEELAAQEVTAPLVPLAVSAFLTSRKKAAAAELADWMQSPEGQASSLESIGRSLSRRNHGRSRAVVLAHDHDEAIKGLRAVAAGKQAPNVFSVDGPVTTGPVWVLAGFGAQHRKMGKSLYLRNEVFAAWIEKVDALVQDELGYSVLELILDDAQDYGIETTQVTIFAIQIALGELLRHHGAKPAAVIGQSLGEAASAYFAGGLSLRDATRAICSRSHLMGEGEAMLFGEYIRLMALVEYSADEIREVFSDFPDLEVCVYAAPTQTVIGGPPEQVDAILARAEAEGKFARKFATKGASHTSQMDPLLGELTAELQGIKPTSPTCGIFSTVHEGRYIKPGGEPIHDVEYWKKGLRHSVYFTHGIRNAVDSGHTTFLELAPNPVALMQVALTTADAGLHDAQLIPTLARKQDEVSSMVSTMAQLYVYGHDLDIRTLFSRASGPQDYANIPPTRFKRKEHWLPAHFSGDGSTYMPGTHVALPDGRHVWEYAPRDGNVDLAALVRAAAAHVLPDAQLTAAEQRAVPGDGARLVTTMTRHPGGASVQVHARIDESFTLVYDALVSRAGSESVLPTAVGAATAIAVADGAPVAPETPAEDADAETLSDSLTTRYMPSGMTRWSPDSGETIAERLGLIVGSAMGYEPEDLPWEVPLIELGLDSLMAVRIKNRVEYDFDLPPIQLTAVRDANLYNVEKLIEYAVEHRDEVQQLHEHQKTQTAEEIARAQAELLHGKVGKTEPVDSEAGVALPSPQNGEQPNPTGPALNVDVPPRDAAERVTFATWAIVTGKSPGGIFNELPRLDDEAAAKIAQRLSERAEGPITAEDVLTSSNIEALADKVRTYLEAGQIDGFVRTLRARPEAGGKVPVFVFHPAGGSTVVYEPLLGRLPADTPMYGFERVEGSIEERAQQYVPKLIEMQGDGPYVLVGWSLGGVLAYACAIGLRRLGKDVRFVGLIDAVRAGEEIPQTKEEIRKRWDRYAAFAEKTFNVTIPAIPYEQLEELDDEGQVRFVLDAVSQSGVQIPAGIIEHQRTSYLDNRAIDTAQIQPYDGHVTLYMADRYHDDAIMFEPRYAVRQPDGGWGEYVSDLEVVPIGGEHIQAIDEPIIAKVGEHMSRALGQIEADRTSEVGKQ

ClpP1P2: 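ClpP1P2, Mycobacterium tuberculosis (UniProt P9WPC5 and UniProt P9WPC3). Protease assay of ClpP1P2, read by the AMC dye that it sets free. Tested at 50 µM. Higher reads as stronger inhibition, judged from the few compounds that gave an IC50. Most other retested compounds had strongly negative values. Size under these conditions: about 69,000 compounds, about 10 of them at 50% or above in at least one test.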
TcHisRS: 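Enzyme assay of histidyl-tRNA synthetase; the read-out is not stated. Target: Histidine-tRNA ligase, Trypanosoma cruzi CL Brener (UniProt Q4DA54). Tested at 30 µM. Direction is inferred from retests: higher values go with stronger inhibition. Of about 69,000 compounds tested this way, about 31 (0.045%) reached 50% or more in at least one test.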
PfKRS1: 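Enzyme assay of the cytosolic lysyl-tRNA synthetase in 384-well plates, read by luminescence. Target: Lysine-tRNA ligase, Plasmodium falciparum 3D7 (UniProt Q8IDJ8). Concentration: 30 µM. Higher reads as stronger inhibition, judged from the few compounds that gave an IC50. About 69,000 compounds were tested under these conditions; 0.071% (about 49) showed 50% or more at least once.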
Pks13 thioesterase: 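Polyketide synthase Pks13, Mycobacterium tuberculosis (UniProt I6X8D2). Enzyme assay of the thioesterase domain of polyketide synthase 13; the read-out is not stated. Compounds at 30 µM. The record gives no direction; the compounds picked for IC50 retests had high values, so higher reads as stronger inhibition. About 67,000 compounds were tested under these conditions; 0.46% (about 300) showed 50% or more at least once.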

Each number is a percent effect as filed. The controls that fix the scale are not given in the record; negative values are as filed. Compounds were drawn at random from those tested, without regard to their results.

SMILES | ClpP1P2 | TcHisRS | PfKRS1 | Pks13 thioesterase
Cc1ccc(-c2cc(N)c(=O)n(C(C)C(N)=O)n2)o1 (centres unmarked) | -28.98 | 0.8571 | 0.7633 | -5.95
CN(C)c1ccc(CCCNC(=O)Nc2ccc(C#N)cc2)cc1 | 3.189 | 0.8333 | -1.781 | -8.988
N#Cc1cccc(N2CCC(CO)(CCCc3ccccc3)CC2)n1 | -4.523 | 5.455 | 1.342 | 67.62
CCN(Cc1ccoc1)C(=O)NC1CCN(CC2CCCC2)CC1 | -1.384 | 10.39 | -0.47 | -44.56
NS(=O)(=O)NCc1cc(-c2ccc(C(F)(F)F)cc2)n[nH]1 | 10 | 12.43 | 3.491 | 28.86
CC(C)(NC(=O)Cc1ccccc1F)C(C)(C)C(=O)O | -14.64 | -1.463 | 4.698 | -5.08
COc1ccc(NC(=O)c2cc3c([nH]c2=O)CCCC3=O)c(OC)c1 | -1.816 | 3.093 | 3.201 | 4.526
CC(C)Oc1ncnc2c1CCN(C(=O)c1cccn1C)CC2 | 10.71 | 6.011 | -4.278 | -38.61
COCCNc1ccc(CC2CCNC2)cn1 (centres unmarked) | -13.17 | 0.7752 | 0.3147 | -17.2
O=C(Cn1cnc2cc3c(cc21)OCCCO3)NC1CCCCC1 | 0.606 | 5.747 | 0.3294 | -8.444
Cc1cc(C(=O)N2CCO[C@H]3[C@H](Oc4ccccn4)CC[C@@H]32)c(C)[nH]1 | -20.99 | 11.22 | -1.305 | 15.68
COc1ccc(CN2CCCC(N3CCCC3)C2)cc1Cn1cncn1 (centres unmarked) | 3.043 | 17.39 | -4.033 | -7.516
Cc1cc(C)cc(OCCN2CCn3c(C)nnc3C2)c1 | 19.68 | 5.634 | 2.281 | -1.093
O=C(NCCCN1CCOCC1)c1ccn(COc2ccccc2)n1 | -9.941 | 1.739 | 7.093 | -19.33
CS(=O)(=O)N1CCC(Oc2ccc(C(=O)N3CCSCC3)cc2Cl)CC1 | -7.753 | 0 | 3.483 | -20.84
Cn1cnnc1C1CCCN(C(=O)c2cc(Cl)c(Cl)n2C)C1 (centres unmarked) | -46.72 | 3.207 | -0.01355 | -7.191
Cc1ncccc1C(=O)Nc1cccc(OCC(F)F)n1 | -8.883 | 7.328 | 4.565 | -23.49
Cc1cc(C2CCCN(CCCS(=O)(=O)c3ccccc3)C2)n[nH]1 (centres unmarked) | 13.3 | 3.008 | 11.25 | -30.91
Cc1ncc(Cl)c(C(=O)N2CC(=O)N(C)c3ccccc32)n1 | 3.036 | 14.45 | 0.2187 | -13.13
Cc1nc(C)c(-c2ccn(CC(=O)Nc3cnn(C)n3)n2)s1 | -15.54 | 3.571 | 1.583 | -3.601
CCN(Cc1ccc2c(c1)OCO2)C(=O)NCc1nc(C)cs1 | -7.076 | 4.202 | 21.21 | -9.951
CO[C@H]1CCN(S(=O)(=O)c2cn(C)cn2)[C@H]1Cc1cnn(C)c1 | 2.137 | -2.703 | 1.78 | -5.909
NC(=O)N1CCCN(C(=O)Nc2cc(-n3cccc3)ccc2F)CC1 | 0.1447 | 12.07 | 6.404 | -5.159
CC(C)CC(NC(=O)c1ccn(C)c(=O)c1)c1cccs1 (centres unmarked) | 6.044 | -3.097 | -5.026 | -15.63
Cc1ccc(-c2nc(C(=O)N(C)C3CCN(C)CC3)cs2)c(C)c1 | -14.18 | 5.539 | -0.7913 | 0.5947
Cc1ccc(=O)n(CC2(O)CCN(Cc3c(F)cccc3F)CC2)n1 | -3.529 | 1.064 | 2.513 | -20.3
Cc1cc(N2CCC(O)(CN(C)C(=O)CCN)C2)c2cnccc2n1 (centres unmarked) | -29.32 | 2.571 | 1.358 | 13.75
O=C1NCCN1C1CCCN(Cc2coc(-c3ccc(F)cc3)n2)C1 (centres unmarked) | 4.844 | -0.3831 | -2.94 | -12.07
CN(Cc1noc(C2CC2)n1)C1CCN(CC(=O)N2CCOCC2)C1 (centres unmarked) | -23.62 | 2.312 | 0.7496 | -13.42
O=C(c1cc2c([nH]c1=O)CCC2)N1CCCCC1c1cccc(F)c1 (centres unmarked) | 0.5015 | 8.696 | -1.833 | 7.704
CN(C)c1ncnc2c1CCN(c1cc(C(F)(F)F)ncn1)CC2 | -19.09 | 6.468 | 7.384 | -4.784
Cn1cc(C2CCCN2C(=O)Cc2n[nH]c3ccccc23)cn1 (centres unmarked) | 6.463 | -3.008 | -1.742 | 15.8
Cn1cnc2c1CCN(CC(=O)NC1CCCCNC1=O)C2 (centres unmarked) | 6.377 | 8.824 | -0.5687 | -14.77
CN(C)CC(=O)N1CCO[C@@H]2CC(COCc3ccncc3)C[C@H]21 (some centres unmarked) | 7.58 | 10.55 | 3.892 | -14.62
CC(C)OCc1noc(C2CCOC2)n1 (centres unmarked) | 4.683 | 3.879 | 1.836 | -7.306
O=C(CCC(=O)N1CCc2ccccc2C1)c1cccs1 | 6.26 | 3.911 | 3.807 | -15.15
Cc1ncccc1NC(=O)C1=NOC2(CCN(Cc3nccs3)C2)C1 (centres unmarked) | 4.069 | 2.732 | 0.1187 | -13.81

The last 4 entries again:

CN(C)CC(=O)N1CCO[C@@H]2CC(COCc3ccncc3)C[C@H]21 (some centres unmarked) read ClpP1P2: 7.58%; TcHisRS: 10.55%; PfKRS1: 3.892%; Pks13 thioesterase: -14.62%.
CC(C)OCc1noc(C2CCOC2)n1 (centres unmarked) read ClpP1P2: 4.683%; TcHisRS: 3.879%; PfKRS1: 1.836%; Pks13 thioesterase: -7.306%.
O=C(CCC(=O)N1CCc2ccccc2C1)c1cccs1 read ClpP1P2: 6.26%; TcHisRS: 3.911%; PfKRS1: 3.807%; Pks13 thioesterase: -15.15%.
Cc1ncccc1NC(=O)C1=NOC2(CCN(Cc3nccs3)C2)C1 (centres unmarked) read ClpP1P2: 4.069%; TcHisRS: 2.732%; PfKRS1: 0.1187%; Pks13 thioesterase: -13.81%.

Data taken from ChEMBL document CHEMBL3988442, “University of Dundee, Small-Polar-MMV Screening Library” (2021).